In paper doi:10.1101/2023.03.02.530905 (bioRxiv, 2023):
Read-outs that look alike come from different tables or passages of the source. These are yes or no findings as the source states them, for the method shown. For part of these data: Binding seen in cells or lysates may run through a third protein. Some entries that bind do so weakly or less than the wild type. For part of these data: Tags and fused reporters may be left off the sequences shown.

Protein sequences, listed by entry. Tags and fused reporters are not part of them.
UniProt Q9BQQ3: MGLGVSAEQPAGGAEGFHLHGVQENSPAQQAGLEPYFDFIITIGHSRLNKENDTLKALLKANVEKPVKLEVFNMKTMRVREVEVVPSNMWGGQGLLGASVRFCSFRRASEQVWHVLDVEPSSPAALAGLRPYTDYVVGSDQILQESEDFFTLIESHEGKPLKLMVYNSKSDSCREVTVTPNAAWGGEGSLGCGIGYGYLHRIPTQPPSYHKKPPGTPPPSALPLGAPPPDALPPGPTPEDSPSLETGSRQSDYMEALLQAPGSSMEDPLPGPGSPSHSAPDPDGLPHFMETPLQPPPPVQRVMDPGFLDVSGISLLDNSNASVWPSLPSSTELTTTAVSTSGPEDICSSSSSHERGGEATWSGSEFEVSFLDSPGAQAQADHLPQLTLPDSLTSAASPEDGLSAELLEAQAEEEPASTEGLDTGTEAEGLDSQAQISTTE
UniProt P51114: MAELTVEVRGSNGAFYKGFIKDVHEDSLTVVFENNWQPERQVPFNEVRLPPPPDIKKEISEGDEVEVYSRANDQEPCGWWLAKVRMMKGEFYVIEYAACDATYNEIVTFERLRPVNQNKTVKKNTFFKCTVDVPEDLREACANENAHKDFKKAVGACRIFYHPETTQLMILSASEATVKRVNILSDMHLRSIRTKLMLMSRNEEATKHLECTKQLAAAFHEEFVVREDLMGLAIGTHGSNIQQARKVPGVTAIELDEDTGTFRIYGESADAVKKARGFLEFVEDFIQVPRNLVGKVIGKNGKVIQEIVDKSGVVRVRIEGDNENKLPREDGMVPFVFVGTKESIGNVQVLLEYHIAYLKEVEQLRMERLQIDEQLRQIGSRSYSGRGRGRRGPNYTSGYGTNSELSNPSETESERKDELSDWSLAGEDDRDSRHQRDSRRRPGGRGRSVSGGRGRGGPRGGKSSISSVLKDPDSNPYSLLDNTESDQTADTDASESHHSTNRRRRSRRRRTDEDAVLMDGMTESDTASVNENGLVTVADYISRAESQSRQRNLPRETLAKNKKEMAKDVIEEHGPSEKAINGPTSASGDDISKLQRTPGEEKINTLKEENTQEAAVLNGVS
UniProt Q13283: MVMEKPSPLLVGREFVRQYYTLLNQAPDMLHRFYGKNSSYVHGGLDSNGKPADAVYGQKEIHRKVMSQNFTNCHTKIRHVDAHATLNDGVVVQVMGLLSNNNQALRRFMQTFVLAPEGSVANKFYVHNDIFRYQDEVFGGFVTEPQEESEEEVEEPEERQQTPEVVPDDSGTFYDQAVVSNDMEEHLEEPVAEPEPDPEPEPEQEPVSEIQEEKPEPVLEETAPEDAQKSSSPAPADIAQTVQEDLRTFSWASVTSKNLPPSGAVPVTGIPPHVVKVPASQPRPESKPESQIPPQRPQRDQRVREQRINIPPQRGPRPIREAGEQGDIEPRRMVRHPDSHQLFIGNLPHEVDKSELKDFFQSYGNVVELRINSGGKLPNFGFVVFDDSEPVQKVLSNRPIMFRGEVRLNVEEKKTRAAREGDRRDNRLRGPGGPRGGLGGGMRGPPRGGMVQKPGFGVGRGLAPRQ
UniProt P11940: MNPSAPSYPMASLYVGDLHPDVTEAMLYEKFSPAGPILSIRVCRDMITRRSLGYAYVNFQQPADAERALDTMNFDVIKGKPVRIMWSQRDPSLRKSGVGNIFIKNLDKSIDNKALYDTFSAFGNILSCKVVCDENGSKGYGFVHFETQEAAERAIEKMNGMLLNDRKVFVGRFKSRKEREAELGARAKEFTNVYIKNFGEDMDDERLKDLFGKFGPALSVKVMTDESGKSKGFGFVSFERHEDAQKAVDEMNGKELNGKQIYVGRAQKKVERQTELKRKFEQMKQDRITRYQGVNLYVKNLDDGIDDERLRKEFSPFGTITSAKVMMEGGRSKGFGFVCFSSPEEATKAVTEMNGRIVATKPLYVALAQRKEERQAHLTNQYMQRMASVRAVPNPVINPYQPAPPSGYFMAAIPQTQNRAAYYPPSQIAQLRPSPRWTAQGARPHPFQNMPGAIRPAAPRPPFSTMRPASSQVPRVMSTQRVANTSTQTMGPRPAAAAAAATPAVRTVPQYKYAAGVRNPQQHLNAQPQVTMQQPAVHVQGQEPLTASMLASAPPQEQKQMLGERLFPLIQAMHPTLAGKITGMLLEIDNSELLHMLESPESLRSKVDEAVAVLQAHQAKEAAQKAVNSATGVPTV

Key:
[1] = target: GRASP65 (endogenous, untagged) (human (endogenous in SV589)) (UniProt Q9BQQ3); assay: co-IP
[2] = target: GRASP65-3xFlag-mAID (human (endogenous in RC65, SV589-derived)) (UniProt Q9BQQ3); assay: co-IP
[3] = target: T1, GM130 (human (endogenous in SV589)) (UniProt Q08379); assay: co-IP
T1 sequence: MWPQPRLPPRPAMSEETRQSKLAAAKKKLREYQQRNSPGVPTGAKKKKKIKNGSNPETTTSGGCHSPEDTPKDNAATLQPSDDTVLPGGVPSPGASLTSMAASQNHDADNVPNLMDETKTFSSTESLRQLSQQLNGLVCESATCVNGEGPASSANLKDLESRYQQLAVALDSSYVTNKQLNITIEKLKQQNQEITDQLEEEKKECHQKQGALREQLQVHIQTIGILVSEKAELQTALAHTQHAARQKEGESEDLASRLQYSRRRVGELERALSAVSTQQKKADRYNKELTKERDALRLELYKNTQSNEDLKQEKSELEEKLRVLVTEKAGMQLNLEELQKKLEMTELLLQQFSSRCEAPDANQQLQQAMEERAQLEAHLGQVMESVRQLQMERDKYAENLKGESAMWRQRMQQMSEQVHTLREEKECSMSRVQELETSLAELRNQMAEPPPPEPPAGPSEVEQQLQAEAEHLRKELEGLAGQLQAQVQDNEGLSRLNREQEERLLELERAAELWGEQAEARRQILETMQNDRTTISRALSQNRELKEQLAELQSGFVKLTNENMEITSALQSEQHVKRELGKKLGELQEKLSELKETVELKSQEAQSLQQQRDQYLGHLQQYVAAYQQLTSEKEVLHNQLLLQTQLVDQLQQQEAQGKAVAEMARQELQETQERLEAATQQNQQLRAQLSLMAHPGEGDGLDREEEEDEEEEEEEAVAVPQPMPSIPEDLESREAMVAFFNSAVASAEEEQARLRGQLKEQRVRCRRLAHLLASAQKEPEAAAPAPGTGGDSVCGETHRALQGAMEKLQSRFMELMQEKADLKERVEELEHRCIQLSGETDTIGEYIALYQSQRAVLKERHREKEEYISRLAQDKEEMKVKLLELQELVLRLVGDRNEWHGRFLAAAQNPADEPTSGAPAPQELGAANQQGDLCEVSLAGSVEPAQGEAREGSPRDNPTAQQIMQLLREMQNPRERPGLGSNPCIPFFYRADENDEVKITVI

[4] = target: T1, GM130 (human (endogenous in SV589)); assay: co-IP; remark: listed apart in the source
[5] = target: GRASP65 (endogenous, untagged) (human (endogenous in SV589)) (UniProt Q9BQQ3); assay: co-IP; remark: listed apart in the source
[6] = target: GRASP65-3xFlag-mAID (human (endogenous in RC65, SV589-derived)) (UniProt Q9BQQ3); assay: co-IP; remark: listed apart in the source
[7] = target: GM130 N122-his (rat) (UniProt Q62839); assay: cross-linking

In the case of “FXR1 (Fragile X mental retardation syndrome-related protein 1) (from UniProt P51114 1-621)”, the binding [1] is reported as “binds” and the binding [2] is reported as “binds”.

In the case of “G3BP1 (G3BP Stress Granule Assembly Factor 1) (from UniProt Q13283 1-466)”, the binding [2] is reported as “binds”.

“GRASP65 (endogenous, untagged) (from UniProt Q9BQQ3 1-440)” was tested, and the binding [3] was “binds” and the binding [4] was “binds”.

“PABPC1 (PABP/Polyadenylate-binding protein 1) (from UniProt P11940 1-636)” was tested, and the binding [2] was “binds”.

B1: GM130 (protein, UniProt Q08379 1-1002)
chain: T1 sequence
B1 was tested, and the binding [5] was “binds” and the binding [6] was “binds”.

B2: GM130 N122-his (domain or fragment, UniProt Q62839 1-122)
chain: MWPPRFPPPRPGMSEETRQSKLAAAKKKLREYQQKNSPGVPAGAKKKKKIKNGHSPERTSASDCQSAENVPTDHTAPAPPSTAAATMFLGVVPSPDADLIQSHDAGNCSNLMEETKTFSSTE
For B2, the binding [7] was “no binding (tested: 1 mg/ml or 2 mg/ml)”.
